Assay results reported in PMC5923506.
These are yes or no findings as the source states them, for the method shown. Binding seen in cells or lysates may run through a third protein. Sequences can lack the tags named with a protein.

Sequences of proteins named here, by UniProt entry; tags and fusion partners are left off.
UniProt P04608: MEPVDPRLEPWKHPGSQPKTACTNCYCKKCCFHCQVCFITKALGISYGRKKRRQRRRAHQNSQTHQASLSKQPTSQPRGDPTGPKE
UniProt P04618: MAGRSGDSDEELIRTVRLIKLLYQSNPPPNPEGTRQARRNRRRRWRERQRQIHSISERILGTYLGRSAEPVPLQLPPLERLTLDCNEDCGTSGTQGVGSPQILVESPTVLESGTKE

Biological target: T1, HA-tagged full-length human breast carcinoma-associated protein (BCA3) (human) (UniProt Q9NQ31)
T1 sequence: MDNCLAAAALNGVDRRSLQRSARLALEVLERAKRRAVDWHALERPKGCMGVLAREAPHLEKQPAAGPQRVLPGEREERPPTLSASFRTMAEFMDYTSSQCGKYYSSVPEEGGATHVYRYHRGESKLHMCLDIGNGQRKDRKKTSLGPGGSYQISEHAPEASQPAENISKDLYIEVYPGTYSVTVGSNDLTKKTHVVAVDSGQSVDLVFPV
Experiment: co-IP

Row | Substance | binding
1 | HIV-1 Tat (from UniProt P04608 1-86) | no binding
2 | HIV-1 p6 (from UniProt P04591 449-500) (domain or fragment) | no binding
3 | HIV-1 Rev (from UniProt P04618 1-116) | no binding
